Laboratory results reported in PubChem BioAssay AID463205 (Broad Institute, 2010).
Out of some 2,400 compounds screened, about 20 (0.8%) were called active.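 The calls were made as follows: active = AC50 no more than ten times the highest tested concentration, or full inhibition at every dose giving a flat fit (cut at about 30 µM in these data); inconclusive = flat fit with activity between 30% and 70%, or poor-quality invalid fit; inactive = AC50 more than ten times the top tested dose.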 The list shows a part of the results.

Test: inhibitors of ADP-Glo detection reagents, dose response, artefact control for GSK-3a inhibitor project, biochemical, luminescence, cell-free, homogeneous (AID 463205);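 also: kinase-free counter-screen against the ADP-Glo detection reagents only; potency is for inhibitors that reduce the luminescence signal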
Conditions: 5 uM ADP

AC50, inactive:
CCN1CCN(Cc2c(O)ccc3c2O/C(=C\C=C\c2ccccc2OC)C3=O)CC1 > 30 µM
CCCCc1[nH]c(=O)c(C#N)c2c1CCCC2 > 30 µM
C[C@@H](NC(=O)c1[nH]cnc1C(=O)Nc1ccon1)c1ccccc1 > 30 µM
O=C(O)c1ccc(Nc2nc(-c3cccnc3)nc3ccccc23)cc1 > 30 µM
Cc1nn(C)c(C)c1CN(C)S(=O)(=O)c1ccc(F)cc1 > 30 µM
CC(=O)N1CCc2c(sc(NC(=O)c3cccc(N4C(=O)CCC4=O)c3)c2C(N)=O)C1 > 30 µM
Cc1ccc(NC(=O)c2cc(-n3cnnc3)ccc2Cl)cc1 > 30 µM
CCC(CC)c1nnc(NC(=O)Oc2ccccc2)s1 > 30 µM
Cc1cc2nc(-c3cccnc3SCC(=O)NCc3ccco3)[nH]c2cc1C > 30 µM
Cc1cccc(C)c1OCC(=O)Nc1ccc2c(c1)C(=O)NC2=O > 30 µM
CC(=O)Nc1sc2c(c1C(N)=O)CCC2 > 30 µM
CCOc1ccc(-c2nc(N)ncc2-c2ccccc2)c(O)c1 > 30 µM
CN(C)CCCNS(=O)(=O)c1ccc(-n2nnc3ccccc32)c([N+](=O)[O-])c1 > 30 µM
COc1ccc(OC)c(/C=C2\Oc3cc(OCC(=O)N4CC(O)C[C@H]4C(=O)O)ccc3C2=O)c1 (stereo partly specified) > 30 µM
COc1ccc2nc(NC(=O)CCc3cc(OC)c(OC)c(OC)c3)sc2c1 > 30 µM
COc1ccc(S(=O)(=O)N[C@H](C(=O)O)C(C)C)cc1 > 30 µM
Nc1c(C(=O)O)ccc2c1C(=O)c1ccccc1C2=O > 30 µM
COC(=O)c1sc2cnccc2c1N > 30 µM
CC1CC(=O)c2cnc(NCC3CCCO3)nc2C1 (stereo unspecified) > 30 µM
CC(C)c1c(C(=O)N/N=C/c2cccnc2)nnn1-c1nonc1N > 30 µM
CN(C)C=NC(=O)/C(C#N)=C/c1ccccc1 > 30 µM
Cc1cc(=O)[nH]c2ccccc12 > 30 µM
COc1ccc(-c2nc(N)n[nH]2)cc1 > 30 µM
NC(=O)c1cn(-c2ccccc2)nc1-c1cccnc1 > 30 µM
CC(=O)c1sc(Nc2cccc(C)c2)nc1C > 30 µM
NNC(=O)CCCCCCCCCCOCCCCO > 30 µM
COc1cccc(CC(=S)N2CCOCC2)c1 > 30 µM
c1ccc(-c2csc3ncnc(NCc4ccccn4)c23)cc1 > 30 µM
O=C(CN(Cc1ccco1)C(=O)CCC(=O)Nc1ccccn1)NCc1ccccc1 > 30 µM
CN1/C(=C\C=C(/C#N)C(=O)Nc2ccc(Cl)cc2)C(C)(C)c2ccccc21 > 30 µM
Cc1c(O)c(CN2CCCC2)cc2c1oc(=O)c1ccccc12 > 30 µM
CCc1ccc(C2C3=C(CC(C)(C)CC3=O)Nc3c2c(=O)[nH]c2nc(C)nn32)cc1 (stereo unspecified) > 30 µM
CC(=O)Nc1cccc(-c2cnc(N)c(C(=O)c3cccnc3)n2)c1 > 30 µM
O=C(Nc1c(C(=O)O)oc2ccc(Br)cc12)c1ccccc1 > 30 µM
O=C1/C(=C/c2ccc(Br)cc2)Oc2cc(O)ccc21 > 30 µM
O=C(O)c1cccc2c1C(=O)c1ccccc1C2=O > 30 µM
CCOc1ccc(Nc2nc(N)c([N+](=O)[O-])c(N3CCN(CC)CC3)n2)cc1 > 30 µM
CN(C)/C=C/c1c([N+](=O)[O-])c2ccc(O)cc2n1-c1ccccc1 > 30 µM
CCN1CCN(c2nc(N)c([N+](=O)[O-])c(Nc3ccc(C)c(C)c3)n2)CC1 > 30 µM
Cn1c(=O)c2[nH]c(NCC3CCCO3)nc2n(-c2ccccc2)c1=O (stereo unspecified) > 30 µM
CCc1ccc(OCC(O)CNC(C)(C)C)cc1 (stereo unspecified) > 30 µM
O=[N+]([O-])c1ccc(N/N=C/c2ccc(OCc3cccc4ccccc34)cc2)nc1 > 30 µM
COc1ccc(OC)c(C2CC(=O)Nc3n[nH]c(-c4ccccc4)c32)c1 (stereo unspecified) > 30 µM
c1cncc(-c2nnc3n2N=C(c2cccs2)CS3)c1 > 30 µM
COC(=O)c1c(NC(=O)Cc2cccs2)sc2c1CCCC2 > 30 µM
Cc1cc2c(C)c(C)c(=O)[nH]c2cc1N > 30 µM
O=C(NCC1CCCO1)c1ccc(NC(=O)c2cccc([N+](=O)[O-])c2)cc1 (stereo unspecified) > 30 µM
CN(C)CCn1c2c(c(SCC(=O)Nc3nccs3)nc1=O)CCCC2 > 30 µM
CN(C)Cc1c(C(=O)N/N=C/c2ccc(-c3ccccc3)cc2)nnn1-c1nonc1N > 30 µM
COCc1cc(C)nc(OCC(=O)N/N=C/c2ccc(O)cc2)c1C#N > 30 µM
COc1ccccc1OCCNC(=O)C1CCN(C(C)=O)CC1 > 30 µM
COc1ccc(NC(=O)Nc2cc(F)ccc2C)cc1 > 30 µM
COC(=O)c1ccc(CN2C(=O)NC(CC(C)C)C2=O)cc1 (stereo unspecified) > 30 µM
CC(C)C(=O)NC(=S)/C=C1/N(C)c2ccccc2C1(C)C > 30 µM
Cc1c(O)ccc2c3c(c(=O)oc12)CCCC3 > 30 µM
CN1CCc2cccc3c2[C@H]1Cc1ccc(O)c(O)c1-3 > 30 µM
O=C(NC1CCCC1)c1cccc(NC(=O)c2ccco2)c1 > 30 µM
COc1ccc(Cl)cc1C(=O)Nc1ccc(NC(=O)c2ccco2)cc1 > 30 µM
NC(=O)c1ccsc1NC(=O)COC(=O)Cc1ccsc1 > 30 µM
COc1ccc(OCc2nc(N)nc(Nc3ccccc3OC)n2)cc1 > 30 µM
O=C(OCC#CCSc1nnc(-c2ccncc2)o1)c1cccs1 > 30 µM
O=c1cc(-c2ccc(O)cc2)oc2c1ccc1ccccc12 > 30 µM
CC(C)C(=O)NC(=S)Nc1sc2c(c1C(N)=O)CCCC2 > 30 µM
CC(C)(C)N=Cc1c(O)ccc2oc3c(c12)CCCC3 > 30 µM
CCC1(C)Cc2c(sc3nn[nH]c(=O)c23)CO1 (stereo unspecified) > 30 µM
CCC(Oc1ccccc1)C(=O)N(C)CC(=O)N(CC(C)C)c1c(N)n(CC(C)C)c(=O)[nH]c1=O (stereo unspecified) > 30 µM
Cc1oc2ccc(O)c(CN3CCOCC3)c2c1C(=O)c1ccc(Cl)cc1 > 30 µM
COc1ccccc1-c1noc(CSc2nc(N)cc(=O)[nH]2)n1 > 30 µM
CC(C)N=C(NC#N)SCc1ccccc1F > 30 µM
CCOc1c(O)ccc(C2NC(=O)N(C)C(C)=C2C(=O)OC)c1[N+](=O)[O-] (stereo unspecified) > 30 µM
CC(Oc1ccc(Br)cc1)C(=O)N1CCC(C(N)=O)CC1 (stereo unspecified) > 30 µM
c1ccc(Cn2nc(-c3ccccc3)nc2-c2ccccc2)cc1 > 30 µM
COc1ccccc1OCC(=O)Nc1sc2c(c1C(N)=O)CCC2 > 30 µM
O=C(NCCCN1CCCC1)c1cc2c(Cl)nc3ccccc3c2s1 > 30 µM
COc1ccc(-c2cc(C(F)(F)F)nc(SCC(=O)NCc3cccs3)n2)cc1 > 30 µM
Cc1cc(N2CCN(c3ccccc3)CC2)n2c(n1)nc1ccccc12 > 30 µM
COc1ccc(-c2csc(Nc3ccccc3)n2)cc1 > 30 µM
COc1ccc(Cn2nnc(C(=O)Nc3ccc(F)cc3)c2N)cc1 > 30 µM
Cc1ccc(-c2c3c(=O)n(C)c(=O)n(C)c3cn2Cc2ccccn2)cc1 > 30 µM
O=C(CSc1nc2ccccc2c(=O)n1-c1ccc(F)cc1F)c1c[nH]c2ccccc12 > 30 µM
COc1ccc(OCc2nc(N)nc(Nc3cccc(C)c3C)n2)cc1 > 30 µM
Nc1nc(Nc2cccc(F)c2)nc(NCc2ccco2)c1[N+](=O)[O-] > 30 µM
COCCCNc1c2c(nc3nnnn13)CCCC2 > 30 µM
COc1ccc(-c2ncncc2-c2csc(C)n2)c(O)c1 > 30 µM
COc1cc(/C=C2/NC(=O)NC2=O)cc(Br)c1OCc1cccc(C(=O)O)c1 > 30 µM
O=C1NC(c2ccccc2)(C(F)(F)F)C(=O)N1Cc1cccnc1 (stereo unspecified) > 30 µM
COc1ccc(C2c3sc(=O)[nH]c3SC3C4CCC(C4)C23)cc1 (stereo unspecified) > 30 µM
CC(C)(C)OC(=O)N1CCC(NC(=O)c2[nH]cnc2C(=O)Nc2ccccc2)CC1 > 30 µM
COc1ccc(-c2nc3ncccn3c2Nc2ccccc2)cc1 > 30 µM
CCOc1ccc(-n2c(SCC(=O)Nc3ccccc3C)n[nH]c2=O)cc1 > 30 µM
CC1CCCCC12NC(=O)N(CC(=O)Nc1sc3c(c1C(N)=O)CCC3)C2=O (stereo unspecified) > 30 µM
Nc1c(CO)nnn1-c1ccccc1 > 30 µM
N#CC1=C2SCN(c3ccc(F)cc3)CN2C(=O)CC1c1cccc(F)c1 (stereo unspecified) > 30 µM
S=C(Nc1cccnc1)Nc1cccc2cnccc12 > 30 µM
CCCCOc1ccc(-c2nnc(N)s2)cc1 > 30 µM
Cc1cc(Nc2ccc(C(=O)O)cc2)nc(N)n1 > 30 µM

Compounds shown so far that have a Cl atom:
AC50, inactive:
Cc1ccc(NC(=O)c2cc(-n3cnnc3)ccc2Cl)cc1 > 30 µM
CN1/C(=C\C=C(/C#N)C(=O)Nc2ccc(Cl)cc2)C(C)(C)c2ccccc21 > 30 µM
COc1ccc(Cl)cc1C(=O)Nc1ccc(NC(=O)c2ccco2)cc1 > 30 µM
Cc1oc2ccc(O)c(CN3CCOCC3)c2c1C(=O)c1ccc(Cl)cc1 > 30 µM
O=C(NCCCN1CCCC1)c1cc2c(Cl)nc3ccccc3c2s1 > 30 µM

2 successive records from above, for reference:
AC50, inactive:
Cc1oc2ccc(O)c(CN3CCOCC3)c2c1C(=O)c1ccc(Cl)cc1 > 30 µM
COc1ccccc1-c1noc(CSc2nc(N)cc(=O)[nH]2)n1 > 30 µM
